# Data as given in PubChem BioAssay AID504847 (National Center for Advancing Translational Sciences (NCATS), 2011).
# Chains of the proteins cited; added tags and fusions are not shown.
# UniProt P11473, whole entry, looked up: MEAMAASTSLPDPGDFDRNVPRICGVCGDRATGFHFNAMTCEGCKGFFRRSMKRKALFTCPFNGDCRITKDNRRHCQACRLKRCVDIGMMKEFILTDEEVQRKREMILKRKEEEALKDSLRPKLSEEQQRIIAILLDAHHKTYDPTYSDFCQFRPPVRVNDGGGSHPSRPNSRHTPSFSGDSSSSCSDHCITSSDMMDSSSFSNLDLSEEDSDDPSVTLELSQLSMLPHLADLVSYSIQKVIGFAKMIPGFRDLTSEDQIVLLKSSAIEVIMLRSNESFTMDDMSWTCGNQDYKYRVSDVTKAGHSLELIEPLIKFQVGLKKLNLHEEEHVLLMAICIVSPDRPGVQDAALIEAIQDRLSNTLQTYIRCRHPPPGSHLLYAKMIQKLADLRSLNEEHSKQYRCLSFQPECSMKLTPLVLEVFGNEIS
# Among all 400,000 compounds or so, about 3,700 (0.93%) were called active. This list was built around the results that the source calls inconclusive (neither active nor inactive); the mix of calls is not that of the screen. Calls follow the shape of the dose curve; as a rule, active = well fitted inhibition curve with a large enough effect; inconclusive = small, poorly fitted or top-dose-only effect, or another doubt; inactive = no such curve, though single readings can be large or run the other way. Potencies of inconclusive entries are doubtful fits and often do not repeat.
# Molecular target: Vitamin D3 receptor (Homo sapiens) (UniProt P11473)
# Test: Inhibitors of the vitamin D receptor (VDR): qHTS
# Conditions: VDR-SRC2-3 peptide fluorescence polarization, 2 h; max response, negative = inhibition: stronger effect = lower value
# Procedure, shortened: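 Measured by FP: displacement of SRC2-3 coactivator peptide from VDR by library compounds, following a two-hour ambient incubation.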
# % is scaled to controls: 0 for no effect and ±100 for the full control effect; potency is read from the fitted curve at half-maximal effect.
SMILES,Potency,"max response, negative = inhibition"
COc1ccc(C2C(C(=O)Nc3ccccc3)=C(C)Nc3nc(-c4ccccc4)nn32)cc1OC (centres undefined),"inconclusive: 100 µM [inhibitor, partial curve, poor fit]",
Cc1ccc(-c2cc(-c3ccc(Cl)cc3)c(C#N)c(N)n2)o1,"inconclusive: 35.5 µM [inhibitor, partial curve, poor fit]",
Cc1ccc(N=C2NC(=O)/C(=C/c3cccnc3)S2)c(C)c1,"inconclusive: 70.8 µM [inhibitor, single point]",
O=[N+]([O-])c1ccc(Oc2cccc(C(F)(F)F)c2)nc1,"inconclusive: 89.1 µM [inhibitor, partial curve, poor fit]",
CC(=O)OC1CC2C(C)(C)C(O)CC[C@@]2(C)C2CC[C@@]3(C)C(c4ccoc4)OC(=O)C4O[C@@]43[C@]12C (some centres undefined),"inconclusive: 56.2 µM [inhibitor, single point]",
O=C1CCCC2CCCCN12 (centres undefined),,inactive: -0.104%
COC(=O)[C@H](C)NC(=O)c1cc2c(cn1)[nH]c1ccccc12,active: 22.4 µM,
Cc1cccc(N=C2N=C(N)c3ccccc32)c1,"inconclusive: 44.7 µM [inhibitor, partial curve, poor fit]",
COc1ccccc1N1CCN(S(=O)(=O)c2ccc(-c3cc(C(F)(F)F)on3)s2)CC1,,inactive: 2.94%
Cn1c(=S)[nH]c(=O)c2ncc(=O)[nH]c21,,inactive: 5.85%
CC(NCC(O)COc1ccc(Br)cc1)c1ccccc1 (centres undefined),"inconclusive: 25.1 µM [inhibitor, partial curve, poor fit]",
CCN(CC)c1ccc(SS(=O)(=O)O)cc1,active: 79.4 µM,
CCOc1ccc(C2CC(c3ccccc3C)n3nc(N)nc3N2)cc1 (centres undefined),"inconclusive: 89.1 µM [inhibitor, single point]",
CCN1C(=O)[C@@H]2[C@@H](c3ccc(-c4ccc5c(c4)OCO5)c(OC)c3)N3CCCC[C@@]3(C(=O)OC)[C@@H]2C1=O,,inactive: 1.95%
COc1ccc(C(=S)N2CCOCC2)cc1OC(=O)c1ccccc1Cl,,inactive: -21%
O=C(CCC(=O)N1Cc2ccccc2Oc2ncccc21)NCc1ccccc1Cl,,inactive: -10.8%
COc1ccc(CNc2ccnc(-c3ccc(N(C)C)cc3)n2)c(OC)c1,,inactive: -14.3%
Cc1cc[n+](CC(=O)c2ccccc2)c2ccccc12,,inactive: 11.2%
CCCOc1ccc(N2C(=O)CC(N3CCN(c4ccc([N+](=O)[O-])cc4)CC3)C2=O)cc1 (centres undefined),,inactive: 14.3%
O=C(O)COc1ccccc1/C=N/NC(=O)CNC(=O)c1ccc(F)cc1,"inconclusive: 22.4 µM [inhibitor, partial curve, poor fit]",
O=C(c1nc2ccc(Cl)cn2c1CN1CCC(CO)CC1)N1CCc2ccccc2C1,,inactive: -13.3%
O=C(O)/C=C/c1nc(-c2ccccc2)n2ccccc12,"inconclusive: 79.4 µM [inhibitor, single point]",

SMILES,Potency,"max response, negative = inhibition"
Cc1ccc(C(=O)OCC(=O)N2CCCc3ccccc32)cc1C,,inactive: -0.94%
CN1CCN(CCCN2c3ccccc3Sc3ccc(Cl)cc32)CC1,"inconclusive: 44.7 µM [inhibitor, partial curve]",
O=C(CCl)N1c2ccccc2Oc2ccc3ccccc3c21,active: 20 µM,
O=C1NC(=S)N/C1=C/c1cccn1-c1ccc([N+](=O)[O-])cc1,"inconclusive: 89.1 µM [inhibitor, single point]",
CN(C)c1ccc(/C=N/NC(=O)c2ccccc2O)o1,"inconclusive: 79.4 µM [inhibitor, single point]",
CC(=O)O[C@@]1(C(C)=O)CCC2C3CC(C)C4=CC(=O)CC[C@@]4(C)C3CC[C@]21C (some centres undefined),"inconclusive: 50.1 µM [inhibitor, partial curve]",
NCCNCCN,active: 15.8 µM,
O=C(/C=C/c1ccco1)N1CCC(Cc2ccccc2)CC1,"inconclusive: 89.1 µM [inhibitor, single point]",
CCOc1ccc(N2C(=O)/C(=C/c3ccc(C)o3)N(C)C2=S)cc1,"inconclusive: 79.4 µM [inhibitor, single point]",
Cc1cccc(-c2noc(CN(C(=O)c3ccc(C)c(C)c3)C(C)C)n2)c1,"inconclusive: 89.1 µM [inhibitor, single point]",
COc1ccc(-c2nc3ccccc3nc2-c2ccccc2)cc1,"inconclusive: 50.1 µM [inhibitor, partial curve, poor fit]",
CC(C)c1ccc(C2CC(=O)N3CN(C)CSC3=C2C#N)cc1 (centres undefined),"inconclusive: 25.1 µM [inhibitor, full curve]",
COc1ccc(CCNC(=O)C2CCN(S(=O)(=O)c3ccc(OC)cc3)CC2)cc1,,inactive: 10.6%
COc1ccc(N2CCN(c3cc(C)c4ccccc4n3)CC2)cc1,,inactive: 7.23%
COc1cc(O)c(C=Nc2ccccc2NS(=O)(=O)c2ccc(C)cc2)c(OC)c1,,inactive: -11.3%
CO/N=C(\CCC(=O)O)c1cccs1,,inactive: -11.3%
COc1ccc(C(=O)/C(=C/c2cccs2)c2nc3ccccc3o2)cc1,active: 31.6 µM,
COc1ccc2[nH]c3c(c2c1)CCN1C(=O)C(CC(=O)NCC24CC5CC(CC(C5)C2)C4)C[C@H](C(=O)N2CCOCC2)[C@@]31CCC1CCCC1 (some centres undefined),"inconclusive: 79.4 µM [inhibitor, partial curve, poor fit]",
COC(=O)C1CCC(=S)N1C(=O)c1ccccc1 (centres undefined),"inconclusive: 56.2 µM [inhibitor, partial curve, poor fit]",
CC(C)Nc1nc(Cl)nc(N(C#N)CN2C(=O)c3ccccc3S2(=O)=O)n1,"inconclusive: 50.1 µM [inhibitor, partial curve, poor fit]",
COc1ccc(OCC(=O)Nc2ccc(N3CCCCC3)cc2)cc1,"inconclusive: 22.4 µM [inhibitor, partial curve, poor fit]",
Cc1ccc(-n2sc3ccccc3c2=O)cc1S(=O)(=O)N1CCCCC1,"inconclusive: 20 µM [inhibitor, full curve, poor fit]",

# In another format: results already given
SMILES	Potency	max response, negative = inhibition
CC(C)c1ccc(C2CC(=O)N3CN(C)CSC3=C2C#N)cc1 (centres undefined)	inconclusive: 25.1 µM [inhibitor, full curve]	
COc1ccc(CCNC(=O)C2CCN(S(=O)(=O)c3ccc(OC)cc3)CC2)cc1		inactive: 10.6%
COc1ccc(N2CCN(c3cc(C)c4ccccc4n3)CC2)cc1		inactive: 7.23%
